The record followed here is paper doi:10.1101/2023.03.24.534085.

Amino acid sequences for entries named in this document (tags omitted). A change or cut given only in a name is not applied to a line headed by its entry.
UniProt Q02487: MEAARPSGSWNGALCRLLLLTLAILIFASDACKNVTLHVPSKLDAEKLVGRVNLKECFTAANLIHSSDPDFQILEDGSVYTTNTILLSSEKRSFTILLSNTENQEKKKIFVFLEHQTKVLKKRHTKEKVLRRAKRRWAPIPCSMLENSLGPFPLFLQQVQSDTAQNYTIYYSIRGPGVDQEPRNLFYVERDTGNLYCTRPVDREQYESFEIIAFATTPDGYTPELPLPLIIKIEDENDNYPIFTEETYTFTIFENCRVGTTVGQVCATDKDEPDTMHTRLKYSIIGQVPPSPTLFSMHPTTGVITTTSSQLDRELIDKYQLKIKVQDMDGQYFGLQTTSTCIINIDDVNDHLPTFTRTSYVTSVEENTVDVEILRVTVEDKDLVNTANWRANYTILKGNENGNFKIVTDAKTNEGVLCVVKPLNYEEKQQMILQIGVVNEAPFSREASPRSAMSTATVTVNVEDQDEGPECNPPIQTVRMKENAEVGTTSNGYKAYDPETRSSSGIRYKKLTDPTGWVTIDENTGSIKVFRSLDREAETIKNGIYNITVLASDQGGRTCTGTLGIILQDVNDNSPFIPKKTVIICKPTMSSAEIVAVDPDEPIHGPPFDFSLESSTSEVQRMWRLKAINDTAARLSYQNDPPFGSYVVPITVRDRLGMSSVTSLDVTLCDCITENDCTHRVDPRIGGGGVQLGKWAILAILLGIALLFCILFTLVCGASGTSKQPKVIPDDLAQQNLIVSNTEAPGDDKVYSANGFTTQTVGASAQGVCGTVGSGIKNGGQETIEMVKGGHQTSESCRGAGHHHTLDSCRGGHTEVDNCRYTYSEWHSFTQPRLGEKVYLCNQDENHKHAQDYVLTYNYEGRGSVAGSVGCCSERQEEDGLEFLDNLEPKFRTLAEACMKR
UniProt A0A8I3MR05: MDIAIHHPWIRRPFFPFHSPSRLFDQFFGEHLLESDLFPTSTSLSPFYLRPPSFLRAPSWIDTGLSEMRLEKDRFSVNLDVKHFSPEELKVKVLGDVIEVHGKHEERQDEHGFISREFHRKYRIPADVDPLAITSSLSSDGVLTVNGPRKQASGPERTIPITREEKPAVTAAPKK
UniProt Q6YKA4: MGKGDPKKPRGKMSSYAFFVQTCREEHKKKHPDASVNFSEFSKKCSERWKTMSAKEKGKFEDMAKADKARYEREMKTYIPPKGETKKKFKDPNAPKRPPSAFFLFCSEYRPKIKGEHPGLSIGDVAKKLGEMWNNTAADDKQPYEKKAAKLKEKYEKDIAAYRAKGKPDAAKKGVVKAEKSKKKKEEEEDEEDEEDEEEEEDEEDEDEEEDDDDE
UniProt A0A8I3NAW5: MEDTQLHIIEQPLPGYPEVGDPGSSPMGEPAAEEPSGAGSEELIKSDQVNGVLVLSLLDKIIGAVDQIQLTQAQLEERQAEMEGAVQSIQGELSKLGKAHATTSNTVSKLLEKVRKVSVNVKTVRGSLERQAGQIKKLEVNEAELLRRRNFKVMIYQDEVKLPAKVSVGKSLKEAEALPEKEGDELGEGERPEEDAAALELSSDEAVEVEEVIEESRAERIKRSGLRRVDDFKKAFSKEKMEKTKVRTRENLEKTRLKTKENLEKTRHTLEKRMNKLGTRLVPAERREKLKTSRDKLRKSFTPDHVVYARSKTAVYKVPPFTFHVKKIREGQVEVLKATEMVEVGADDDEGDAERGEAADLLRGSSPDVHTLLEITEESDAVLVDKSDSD
UniProt P42929: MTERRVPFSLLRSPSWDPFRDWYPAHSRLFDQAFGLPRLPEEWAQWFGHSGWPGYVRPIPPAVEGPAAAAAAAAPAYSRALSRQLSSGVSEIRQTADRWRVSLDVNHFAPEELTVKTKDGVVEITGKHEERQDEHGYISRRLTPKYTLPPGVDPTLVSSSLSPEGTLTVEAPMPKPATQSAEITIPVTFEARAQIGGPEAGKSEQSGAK
UniProt A0A8I3NQ19: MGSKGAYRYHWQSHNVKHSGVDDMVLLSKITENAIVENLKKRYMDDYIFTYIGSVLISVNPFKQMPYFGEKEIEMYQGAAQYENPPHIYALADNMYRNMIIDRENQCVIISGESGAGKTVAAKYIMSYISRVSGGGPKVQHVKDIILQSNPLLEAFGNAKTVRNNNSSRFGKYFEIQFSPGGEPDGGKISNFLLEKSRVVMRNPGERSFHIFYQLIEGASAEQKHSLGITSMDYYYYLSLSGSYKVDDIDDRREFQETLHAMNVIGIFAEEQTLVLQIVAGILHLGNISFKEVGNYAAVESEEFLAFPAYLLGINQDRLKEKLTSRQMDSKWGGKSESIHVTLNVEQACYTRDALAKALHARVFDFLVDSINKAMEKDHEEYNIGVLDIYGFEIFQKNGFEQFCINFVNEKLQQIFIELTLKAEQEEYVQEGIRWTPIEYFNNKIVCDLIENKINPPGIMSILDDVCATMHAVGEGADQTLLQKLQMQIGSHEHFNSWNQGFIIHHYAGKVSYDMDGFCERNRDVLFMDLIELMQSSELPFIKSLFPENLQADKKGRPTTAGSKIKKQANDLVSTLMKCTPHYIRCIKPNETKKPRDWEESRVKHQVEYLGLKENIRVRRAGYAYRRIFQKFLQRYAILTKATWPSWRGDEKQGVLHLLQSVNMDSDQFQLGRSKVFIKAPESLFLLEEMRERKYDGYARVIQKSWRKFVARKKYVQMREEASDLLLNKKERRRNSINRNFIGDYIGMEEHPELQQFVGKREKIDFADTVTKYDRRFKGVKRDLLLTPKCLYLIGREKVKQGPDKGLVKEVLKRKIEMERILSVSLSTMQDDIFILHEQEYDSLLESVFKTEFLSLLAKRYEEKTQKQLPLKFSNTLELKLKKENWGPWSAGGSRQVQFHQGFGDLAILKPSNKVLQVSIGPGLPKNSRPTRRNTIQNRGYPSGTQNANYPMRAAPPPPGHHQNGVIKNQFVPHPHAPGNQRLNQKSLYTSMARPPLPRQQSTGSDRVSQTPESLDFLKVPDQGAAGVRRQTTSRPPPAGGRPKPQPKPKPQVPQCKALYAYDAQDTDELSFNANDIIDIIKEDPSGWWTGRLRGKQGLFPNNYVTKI
UniProt A0A8I3P9Q5: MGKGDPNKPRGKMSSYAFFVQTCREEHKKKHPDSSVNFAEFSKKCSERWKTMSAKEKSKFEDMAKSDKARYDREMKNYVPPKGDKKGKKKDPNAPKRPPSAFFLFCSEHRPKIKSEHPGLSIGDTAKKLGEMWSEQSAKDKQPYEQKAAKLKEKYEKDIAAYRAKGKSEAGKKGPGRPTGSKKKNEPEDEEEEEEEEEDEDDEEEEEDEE
UniProt A0A8I3PHM6: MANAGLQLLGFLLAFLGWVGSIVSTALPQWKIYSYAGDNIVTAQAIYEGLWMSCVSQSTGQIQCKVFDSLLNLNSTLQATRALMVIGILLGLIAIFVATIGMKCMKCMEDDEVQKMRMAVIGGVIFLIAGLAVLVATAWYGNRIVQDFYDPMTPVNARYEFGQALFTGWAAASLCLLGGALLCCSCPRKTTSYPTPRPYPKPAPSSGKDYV
UniProt A0A8I3N1D8: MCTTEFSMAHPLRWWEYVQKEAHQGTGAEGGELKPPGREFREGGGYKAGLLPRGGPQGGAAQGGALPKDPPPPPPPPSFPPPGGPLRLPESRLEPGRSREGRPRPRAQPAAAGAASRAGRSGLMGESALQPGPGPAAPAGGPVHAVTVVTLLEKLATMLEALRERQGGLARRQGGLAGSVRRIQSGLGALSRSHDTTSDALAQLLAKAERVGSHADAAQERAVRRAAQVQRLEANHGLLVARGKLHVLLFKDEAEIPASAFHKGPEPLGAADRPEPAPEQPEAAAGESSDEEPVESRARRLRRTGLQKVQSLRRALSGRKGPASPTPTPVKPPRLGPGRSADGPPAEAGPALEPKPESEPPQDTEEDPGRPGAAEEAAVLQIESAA

Results are given in words; binding and its absence hold for the method and conditions named. In cells and extracts the contact can be indirect. Here binding means that the protein was enriched with, or labelled near, the bait; the list need not be complete. For part of these data: A no says only that the protein was not detected with the bait. For part of these data: Sequences can lack the tags named with a protein.

The target of one assay is T1, myc-BirA-plakophilin 2a (UniProt Q99959).
T1 sequence: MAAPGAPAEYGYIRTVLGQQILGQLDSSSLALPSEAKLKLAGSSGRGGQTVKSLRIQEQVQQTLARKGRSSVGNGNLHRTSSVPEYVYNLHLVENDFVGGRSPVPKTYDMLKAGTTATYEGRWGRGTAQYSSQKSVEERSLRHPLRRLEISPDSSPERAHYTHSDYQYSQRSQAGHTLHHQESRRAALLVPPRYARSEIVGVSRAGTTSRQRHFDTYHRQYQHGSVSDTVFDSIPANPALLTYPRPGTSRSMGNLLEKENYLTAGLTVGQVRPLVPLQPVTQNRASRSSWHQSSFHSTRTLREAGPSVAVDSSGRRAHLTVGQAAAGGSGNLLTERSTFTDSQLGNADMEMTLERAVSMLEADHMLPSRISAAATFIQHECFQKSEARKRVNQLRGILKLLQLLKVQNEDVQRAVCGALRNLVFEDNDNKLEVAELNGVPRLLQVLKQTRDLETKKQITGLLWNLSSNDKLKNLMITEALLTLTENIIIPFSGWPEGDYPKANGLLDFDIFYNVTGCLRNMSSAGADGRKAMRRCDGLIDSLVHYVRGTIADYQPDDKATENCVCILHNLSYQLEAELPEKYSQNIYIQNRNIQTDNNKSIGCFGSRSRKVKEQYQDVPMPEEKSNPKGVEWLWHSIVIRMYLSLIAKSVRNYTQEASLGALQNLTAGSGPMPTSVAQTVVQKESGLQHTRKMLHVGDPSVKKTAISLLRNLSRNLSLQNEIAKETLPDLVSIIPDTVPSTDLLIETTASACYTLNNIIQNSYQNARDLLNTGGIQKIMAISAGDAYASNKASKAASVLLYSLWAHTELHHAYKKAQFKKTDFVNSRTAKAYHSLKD
In words: proximity labelling.

Assay [1] deals with desmocollin 2a-BirA-myc (UniProt Q02487). In words: proximity labelling.
Assay [2] has as its target T2, plakoglobin tagged with BirA-myc (PG*; merged data of plakoglobin-BirA-myc and myc-BirA-plakoglobin) (UniProt P14923).
T2 sequence: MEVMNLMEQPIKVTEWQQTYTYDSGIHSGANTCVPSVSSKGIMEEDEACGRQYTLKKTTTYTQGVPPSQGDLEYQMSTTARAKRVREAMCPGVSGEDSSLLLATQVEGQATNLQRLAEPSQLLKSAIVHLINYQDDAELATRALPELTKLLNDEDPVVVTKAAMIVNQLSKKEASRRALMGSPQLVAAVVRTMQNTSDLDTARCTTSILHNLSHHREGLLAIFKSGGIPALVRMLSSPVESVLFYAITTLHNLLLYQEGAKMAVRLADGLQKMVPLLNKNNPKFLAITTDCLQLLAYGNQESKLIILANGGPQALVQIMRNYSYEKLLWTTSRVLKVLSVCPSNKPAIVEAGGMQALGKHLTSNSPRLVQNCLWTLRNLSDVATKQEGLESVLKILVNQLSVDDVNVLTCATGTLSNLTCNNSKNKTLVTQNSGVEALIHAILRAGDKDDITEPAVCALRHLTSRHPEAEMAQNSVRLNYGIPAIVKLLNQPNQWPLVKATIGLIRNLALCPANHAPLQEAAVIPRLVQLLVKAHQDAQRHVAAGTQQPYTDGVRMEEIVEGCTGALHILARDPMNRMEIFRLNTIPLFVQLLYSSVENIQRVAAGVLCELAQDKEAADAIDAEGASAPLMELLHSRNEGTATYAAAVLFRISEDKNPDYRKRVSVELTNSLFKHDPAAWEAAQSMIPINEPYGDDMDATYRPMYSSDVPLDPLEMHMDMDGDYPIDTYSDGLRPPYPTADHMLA
Kind of assay: proximity labelling.

Assay [3] concerns the target desmocollin 2a-BirA-myc (UniProt Q02487). Kind of assay: condition: only cells confluent for 1 day.
Assay [4] has the same target. In words: condition: only cells confluent for 5 days.

With “HSP CRYAB (from UniProt A0A8I3MR05 1-175)”, the binding result in the assay with myc-BirA-plakophilin 2a is given as “binds”.

As to “high mobility group protein 1 (from UniProt Q6YKA4 1-215)”, the binding entry (with desmocollin 2a-BirA-myc [1]; with myc-BirA-plakophilin 2a; in assay [2]) was “binds” in each case.

For the substance “caveolae associated protein 1 (from UniProt A0A8I3NAW5 1-390)”, the binding result with desmocollin 2a-BirA-myc [3] is “no binding”; with desmocollin 2a-BirA-myc [1] it was “binds”.

On to HSP HSPB1 (from UniProt P42929 1-209), for which, in the assay with myc-BirA-plakophilin 2a, the binding result is recorded as “binds”.

Turning to “myosin 1E (from UniProt A0A8I3NQ19 1-1108)”, the binding result in assay [2] was “binds”.

“high mobility group protein 2 (from UniProt A0A8I3P9Q5 1-210)”: the binding entry (with desmocollin 2a-BirA-myc [1]; in the assay with myc-BirA-plakophilin 2a; in assay [2]) was “binds” each time.

As to “claudin 1 (from UniProt A0A8I3PHM6 1-211)”, the binding entry is recorded as “no binding” with desmocollin 2a-BirA-myc [4] and “binds” with desmocollin 2a-BirA-myc [1].

Turning to “caveolae associated protein 3 (from UniProt A0A8I3N1D8 1-386)”, the results for the binding result in the assay with desmocollin 2a-BirA-myc [3] and in the assay with desmocollin 2a-BirA-myc [1] were “no binding” and “binds”, respectively.
